Experiment in all cases: Tryptophan fluorescence with LUVs
Holding throughout (assay type): binding

In data set [1] the test system is PC/SM/PE/PS/Chol (4.35:4.35:1:0.3:1 w/w) LUVs. An excerpt:
(§1) In order to investigate the interaction between peptides and difference types of cell membranes, three different LUVs were used to mimic a prokaryotic cell membrane (PC/PG), a normal eukaryotic cell membrane (PC/Chol), and a cancer cell membrane (PC/SM/PE/PS/Chol). Tryptophan residue in the peptide sequence was used as a fluorescent probe to examine the interaction of peptides with model membranes. […] For example, in the PC/PG (7:3 w/w) anionic prokaryotic mimicking model membrane, peptides V13L and A12L/A20L had the strongest hydrophobicity with blue shift values of approximately 37 nm and 38 nm, respectively. Conversely, peptide V13E with a negative charge of glutamic acid residue, and peptide L6A/L17A with the lowest hydrophobicity had blue shift values of approximately 18 nm and 17 nm, respectively. […] In addition, within PC/SM/PE/PS/Chol (4.35:4.35:1:0.3:1 w/w) as a cancer-mimicking model membrane, the same results could be obtained in that peptide hydrophobicity correlates with anticancer activity and the blue shift values of peptides.
(§2) In accordance with previously described methods, LUVs were prepared with PC/PG (7:3 w/w), PC/Chol (8:1 w/w), and PC/SM/PE/PS/Chol (4.35:4.35:1:0.3:1 w/w) to mimic prokaryotic cell, […], membranes, respectively. Lipids using the freeze-thaw method as described previously, followed by extrusion through […] double-stacked nuclepore filters using an Mini-Extruder (Avanti Polar Lipids, Inc.)[11][27].
(§3) Three kinds of LUVs were prepared and cultured in HEPES buffer (pH 7.4, 10 mM HEPES, 150 mM NaCl) and the molar concentration was adjusted to 100 μM. A total of 14 μL of 100 μM MAPs was mixed with 686 μL of 100 μM liposomes at 25 °C for 10 min. A Shimadzu RF-5301PC, (excitation wavelength of […], emission wavelength of 300–450 nm) was used to measure the tryptophan fluorescence. Potassium iodide (KI) as a quencher was added to the previous reaction system for a final concentration of 0.02–0.08 M, respectively. The experimental data were plotted according to the Stern–Volmer equation F0/F = 1 + Ksv[Q], where F0 and F are the fluorescence intensity in the absence or presence of a quencher at concentration [Q], respectively, and Ksv is the Stern–Volmer quenching constant.

The next data set concerns PC/Chol (8:1 w/w) LUVs.
Source text: as §1, §2, §3

For the next data set, the system named is PC/PG (7:3 w/w) LUVs. Conditions: HEPES pH 7.4, 25 °C, 10 min.
Source text: as §1, §2, §3

In the case of `CC[C@H](C)[C@H](NC(=O)[C@H](C)NC(=O)[C@H](CCCCN)NC(=O)[C@H](CC(C)C)NC(=O)[C@H](C)NC(=O)[C@@H](NC(=O)[C@H](Cc1c[nH]cn1)NC(=O)[C@H](CC(C)C)NC(=O)[C@@H](NC(=O)[C@@H](NC(=O)[C@H](CCCCN)NC(=O)[C@H](CCCCN)NC(=O)[C@H](C)NC(=O)[C@H](CO)NC(=O)[C@H](CCCCN)NC(=O)[C@H](Cc1ccccc1)NC(=O)[C@@H](NC(=O)[C@H](CCCCN)NC(=O)[C@H](CC(C)C)NC(=O)[C@H](Cc1ccccc1)NC(=O)[C@H](CO)NC(=O)[C@H](CCCCN)NC(=O)[C@H](Cc1c[nH]c2ccccc12)NC(=O)[C@H](CCCCN)NC(C)=O)[C@@H](C)O)[C@@H](C)O)C(C)C)[C@@H](C)O)C(=O)N[C@@H](CO)C(=O)N[C@@H](CO)C(N)=O` [Peptide V13K], the “PC/SM/PE/PS/Chol Wavelength (emission maximum)” value in data set [1] (PC/SM/PE/PS/Chol (4.35:4.35:1:0.3:1 w/w) LUVs, HEPES pH 7.4, 25 °C, 10 min) is on record as 321 nm. Besides, the “PC/SM/PE/PS/Chol Intensity” value in data set [1] (tryptophan fluorescence intensity, PC/SM/PE/PS/Chol LUVs, 25 °C) worked out at 247.36. Also, the “PC/Chol Wavelength (emission maximum)” value in the data set with PC/Chol (8:1 w/w) LUVs (HEPES pH 7.4, 25 °C, 10 min) was 344 nm. Besides, the “PC/Chol Intensity” value with PC/Chol (8:1 w/w) LUVs (tryptophan fluorescence intensity, 25 °C) is 78.00. In addition, the “PC/PG Wavelength (emission maximum)” value with PC/PG (7:3 w/w) LUVs is listed as 320 nm.
